# Experimental data from article PMC11528023, “Transport mechanism and structural pharmacology of human urate transporter URAT1” (Cell Research, 2024).
# Protein sequences, listed by entry. Tags and fused reporters are not part of them. Lines headed by an entry give the natural chain unless they say otherwise; changes in a name come on top.
# UniProt Q96S37: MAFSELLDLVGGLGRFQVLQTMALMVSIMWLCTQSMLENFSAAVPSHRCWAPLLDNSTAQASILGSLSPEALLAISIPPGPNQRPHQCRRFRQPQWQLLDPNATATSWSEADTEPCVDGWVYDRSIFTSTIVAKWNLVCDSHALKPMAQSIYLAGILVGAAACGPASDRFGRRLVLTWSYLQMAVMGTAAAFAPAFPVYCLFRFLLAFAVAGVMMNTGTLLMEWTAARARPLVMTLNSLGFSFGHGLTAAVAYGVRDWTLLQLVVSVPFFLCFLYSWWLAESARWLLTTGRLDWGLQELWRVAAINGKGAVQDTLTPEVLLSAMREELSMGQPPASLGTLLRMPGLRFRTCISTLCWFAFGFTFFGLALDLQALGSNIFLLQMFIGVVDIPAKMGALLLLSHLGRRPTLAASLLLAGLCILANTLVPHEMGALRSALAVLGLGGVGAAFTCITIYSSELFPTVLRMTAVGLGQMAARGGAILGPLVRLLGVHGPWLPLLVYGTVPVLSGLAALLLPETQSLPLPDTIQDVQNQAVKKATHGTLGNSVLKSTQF
# UniProt Q9NSA0: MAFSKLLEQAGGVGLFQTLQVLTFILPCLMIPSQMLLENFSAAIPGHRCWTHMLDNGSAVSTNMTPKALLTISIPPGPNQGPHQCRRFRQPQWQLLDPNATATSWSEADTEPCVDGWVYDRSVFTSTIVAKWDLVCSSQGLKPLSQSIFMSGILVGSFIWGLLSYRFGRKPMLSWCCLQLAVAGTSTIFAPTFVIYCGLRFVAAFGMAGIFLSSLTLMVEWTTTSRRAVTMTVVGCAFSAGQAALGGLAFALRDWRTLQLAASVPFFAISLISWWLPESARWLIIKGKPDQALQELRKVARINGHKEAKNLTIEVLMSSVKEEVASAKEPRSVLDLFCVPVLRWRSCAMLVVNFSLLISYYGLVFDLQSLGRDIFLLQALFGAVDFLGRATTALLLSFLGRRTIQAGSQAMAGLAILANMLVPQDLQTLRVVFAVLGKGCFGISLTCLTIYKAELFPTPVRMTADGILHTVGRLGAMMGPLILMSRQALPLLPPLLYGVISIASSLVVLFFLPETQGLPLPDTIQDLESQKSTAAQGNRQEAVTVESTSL
# Results are given in words; binding and its absence hold for the method and conditions named.
# Biological target: URAT1EM: cryo-EM construct of human URAT1 (residues 3-553) with residues 280-343 and 60-65 replaced by the corresponding OAT4 sequences, fused to MBP and DARPin off7 (human) (UniProt Q96S37+Q9NSA0)
# Assay: cryo-EM particle images; purified protein at the high concentration used to prepare cryo-EM grids; particles seen on the grids (Supplementary Fig. S1b); both purified
substance,measurement,value
"URAT1EM: cryo-EM construct of human URAT1 (residues 3-553) with residues 280-343 and 60-65 replaced by the corresponding OAT4 sequences, fused to MBP and DARPin off7 (from UniProt Q96S37 3-59; Q9NSA0 60-62; Q96S37 66-279; Q9NSA0 277-339; Q96S37 344-553)",binding,no binding
